Several values for one entry are separate records, joined by “and”; a condition that tells them apart may be missing. Equal entries are not always repeated. Some of the results follow. Further columns of the screen follow, without active or inactive calls. The list favours compounds with an active or inconclusive main result. Potencies come from curve fits of mixed quality, noted in brackets.

For 36 molecules, AC50 results are on record in PubChem BioAssay AID1487 (National Center for Advancing Translational Sciences (NCATS), 2009).

A short description of the assay: qHTS Assay for Modulators of Lamin A Splicing. The following applies: HeLa LMNA splicing GFP/RFP minigene ratio, 48 h. An outline of the steps: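 Read-out is the ratio of GFP to DsRed2 object intensity, acquired by 488 nm laser-scanning cytometry on HeLa lamin A-EGFP minigene reporter cells. Compound incubation 48 hrs at 37 °C in Opti-MEM with 2% FBS; DMSO 0.5% final.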
On the technique in general: Quantitative high-throughput screening tests each substance at several concentrations.

Where [1] appears, read: measured here: RFP viability control channel.
Where [2] appears, read: measured here: GFP splicing reporter channel.

`CCOc1ccc2nc(NCCNS(=O)(=O)c3ccccc3)c(C#N)cc2c1`: the AC50 (usually the concentration at which the activity in the assay is half-maximal) under setting [1] is 25.1 µM [falling, partial curve, poor fit].

For the molecule `CN(C)CCOC(c1ccccc1)c1ccccc1`, the AC50 is, setting by setting: under setting [2], 794 nM [falling, partial curve, poor fit] and 31.6 µM [falling, partial curve]; under setting [1], 17.8 µM [rising, partial curve, poor fit] and 35.5 µM [falling, single point]. On to `Cc1cccc(NC(=O)c2c(C)nn(-c3ccccc3)c2Cl)c1`, for which the AC50 under setting [2] is 10 µM [rising, partial curve]. Still for that read-out and setting: then `C[C@H]1C[C@@H]2[C@@H]([C@@H](O)C[C@@]3(C)[C@H]2CC[C@]3(O)C(=O)CO)[C@@]2(C)C=CC(=O)C=C12`, with 8.91 µM [falling, single point]. As to `COc1ccc(OC)c(NC(=O)C23CC4CC(C2)CC(n2cnc(Br)n2)(C4)C3)c1`, under setting [1], the AC50 was 31.6 µM [rising, single point]. Turning to `Cn1c(Sc2ccc(Br)cc2)c(C=O)c2ccccc21`, the AC50 was 2 µM [rising, partial curve] under setting [2] and 17.8 µM [rising, single point] under setting [1]. For the molecule `CC(C)(C)NC(=O)CN(C(=O)C1CSC(=O)C1)c1ccccc1F` (stereo unspecified), the concentration at half-maximal activity (AC50) by setting is: under setting [2], 0.01 µM [falling, full curve, poor fit]; under setting [1], 0.00447 µM [falling, full curve]. In the case of `COc1cc(OC)cc(C(=O)NNC(=O)NC2CCCCC2)c1`, under setting [1], the AC50 was 35.5 µM [rising, single point].

With `O=S(=O)(NCC(c1ccco1)N1CCN(c2ccccc2F)CC1)c1ccc2c(c1)OCCO2` (stereo unspecified), the AC50 under setting [1] was 11.2 µM [rising, partial curve]. Turning to `CC(=O)Nc1ccc(Nc2ccc3nonc3c2[N+](=O)[O-])cc1`, under setting [1], the AC50 was 0.0282 µM [rising, full curve, poor fit]. For `O=C(N/N=C/c1ccc(OCC2COCCO2)cc1)c1ccc(Br)cc1` (stereo unspecified), under setting [1], the half-maximal activity concentration (AC50) was 2.82 µM [rising, partial curve].

Turning to `Cc1ccc2nc(N(Cc3cccnc3)C(=O)c3cccs3)sc2c1`, under setting [1], the concentration at half-maximal activity (AC50) is 39.8 µM [falling, partial curve, poor fit]. Turning to `Cc1cnc(C(=O)OCC(=O)NCCCc2ccccc2)cn1`, the concentration at half-maximal activity (AC50) under setting [1] was 11.2 µM [falling, partial curve]. In the case of `CC/C(=N\NC(=O)c1cc(C)nc2ccccc12)c1ccc(C)s1`, under setting [1], the AC50 is 11.2 µM [rising, single point]. In the case of `O=C(Nc1nc2ccccc2s1)c1cc(-c2ccccc2)nn1-c1ccccc1`, the AC50 under setting [2] is 2.51 µM [rising, single point] and the AC50 under setting [1] is 6.31 µM [rising, full curve]. In the case of `COCc1nnc(SCC(=O)Nc2cccc(Cl)c2C)n1-c1ccccc1`, the AC50 under setting [2] was 12.6 µM [rising, single point]. As to `N#C/C(=C/C=C/c1ccccc1)C(=O)Nc1ccccc1`, the AC50 under setting [1] was 2 µM [rising, full curve, poor fit]. As for `O=C(NCc1ccco1)/C(=C\C=C\c1ccccc1)NC(=O)c1ccccc1Br`, the AC50 under setting [1] was 25.1 µM [falling, partial curve]. For the molecule `CCOC(=O)CCNCc1ccc(F)cc1`, under setting [2], the AC50 is 0.398 µM [falling, partial curve].

In the case of `CCc1nnc(NC(=O)CCC(=O)N2CCN(Cc3ccc(Cl)cc3)CC2)s1`, under setting [1], the concentration at half-maximal activity (AC50) is 10 µM [rising, partial curve]. Regarding `O=C(C1CCC(CNc2nc(=S)[nH]c3ccccc23)CC1)N1CCN(c2ccc(F)cc2)CC1` (stereo unspecified), the concentration at half-maximal activity (AC50) was 3.55 µM [falling, full curve] under setting [2] and 0.794 µM [falling, full curve, poor fit] under setting [1]. Regarding `COc1cc(/C=N/NC(=O)CCN2CCN(c3ccccc3)CC2)cc(OC)c1OC`, under setting [1], the half-maximal activity concentration (AC50) is 0.316 µM [rising, partial curve, poor fit]. `CCOc1cc(/C=C2/NC(=O)N(CC(=O)OC)C2=O)ccc1O`: under setting [1], the AC50 was 3.16 µM [falling, full curve]. With `COCCCNC(=O)CN(c1ccc(Cl)c(Cl)c1)S(C)(=O)=O`, the AC50 under setting [1] was 31.6 µM [rising, single point]. In the case of `CN1CCN(c2ncc3nc(-c4cn(C)c5ccccc45)c(=O)n(Cc4cccs4)c3n2)CC1`, the concentration at half-maximal activity (AC50) is, setting by setting: under setting [2], 17.8 µM [falling, partial curve]; under setting [1], 22.4 µM [falling, partial curve]. For the molecule `COc1ccc2[nH]c3nc(SCc4nnc(-c5ccccc5)o4)nnc3c2c1`, the AC50 runs as follows: under setting [2], 7.94 µM [rising, partial curve]; under setting [1], 5.01 µM [rising, full curve]. On to `Cc1ccc(-c2nc(CN(C)C3CCOC3)c(C)o2)s1` (stereo unspecified), for which the AC50 under setting [1] is 4.47 µM [falling, full curve].

For the molecule `CCc1ccccc1NC(=O)Cc1ccc(-n2cccc2)cc1`, the concentration at half-maximal activity (AC50) reads like this: under setting [2], 17.8 µM [rising, single point]; under setting [1], 35.5 µM [rising, single point]. Take `CC(C)(Oc1cccc2ccccc12)C(=O)O`: the concentration at half-maximal activity (AC50) under setting [2] is 3.55 µM [rising, full curve, poor fit]. In the case of `Cc1cc2nc(-c3cccc(NC(=O)c4ccc(Br)o4)c3C)oc2cc1C`, the half-maximal activity concentration (AC50) under setting [1] was 11.2 µM [rising, partial curve]. Consider `O=C(O)CCCCC(=O)O`, for which, under setting [1], the half-maximal activity concentration (AC50) was 0.178 µM [rising, full curve, poor fit]. With `Cc1ccc(C(=O)N2NC(c3ccc(F)cc3)C3C(=O)N(c4ccc(C)c(C)c4)C(=O)C32)cc1` (stereo unspecified), the AC50 under setting [1] was 0.0251 µM [falling, full curve, poor fit]. Consider `CCOC(=O)c1c(-c2ccccc2Cl)csc1NC(=O)c1cc(S(=O)(=O)N2CCOCC2)ccc1C`, for which the AC50 was 11.2 µM [rising, partial curve, poor fit] under setting [2] and 22.4 µM [rising, partial curve] under setting [1]. Regarding `COc1ccc(-c2cn3c(n2)CCC3)cc1`, the AC50 under setting [1] is 3.55 µM [rising, partial curve, poor fit].

For the molecule `COc1ccc(Cl)cc1C(=O)Nc1ccc(CN2CCCCC2)cc1`, the half-maximal activity concentration (AC50) was 0.112 µM [falling, full curve, poor fit] under setting [2] and 0.158 µM [falling, single point] under setting [1].

As for `COC(=O)CNC(=O)COC(=O)/C=C/c1ccc2ccccc2n1`, under setting [1], the AC50 is 15.8 µM [rising, partial curve].
